PubChem BioAssay AID1259425 | University of Nebraska Medical Center – 2018

- Purpose: 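Find knockdowns that reproduce the gene expression pattern seen when KSR1 is lost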 (primary screen)
- Cells: HCT116 human colon cancer cells
- Reagent: siRNA pool against human genes, 50 nM siRNA
- Read-out: 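mRNA of six signature genes measured together by branched-DNA assay after 50 nM siRNA pool, blank removed, divided by geometric mean of two housekeeping genes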
- Direction: BNIP3L mRNA: higher = more BNIP3L transcript after knockdown; NDRG1 mRNA: higher = more NDRG1 transcript after knockdown
This is an unselected part of about 14,000 reagents. Not all columns of the deposit are shown. Not stated in the record: the time to read-out.

For GLRX2 the deposit lists BNIP3L mRNA, set 1 = 0.0794; NDRG1 mRNA, set 1 = 0.231.
Silencing of INSL5 gave: BNIP3L mRNA, set 1 = 0.0503; NDRG1 mRNA, set 1 = 0.142.
After knock-down of GK the results were BNIP3L mRNA, set 1 = 0.0561; NDRG1 mRNA, set 1 = 0.157.
BIN1 gave BNIP3L mRNA, set 1 = 0.062; NDRG1 mRNA, set 1 = 0.187.
Against PSMC3 the deposit lists BNIP3L mRNA, set 1 = 0.51; NDRG1 mRNA, set 1 = 1.36.
PPP1CB scored BNIP3L mRNA, set 1 = 0.0507; NDRG1 mRNA, set 1 = 0.178.
With knock-down of NEUROG1, the record shows BNIP3L mRNA, set 1 = 0.103; NDRG1 mRNA, set 1 = 0.255.
TP53I3 gave BNIP3L mRNA, set 1 = 0.224; NDRG1 mRNA, set 1 = 0.268.
Knock-down of TRAPPC2 gave: BNIP3L mRNA, set 1 = 0.212; NDRG1 mRNA, set 1 = 0.215.
After knock-down of TSPAN4, the screen gave BNIP3L mRNA, set 1 = 0.0211; NDRG1 mRNA, set 1 = 0.455.
Depletion of OPRL1 came out at: BNIP3L mRNA, set 1 = 0.0812; NDRG1 mRNA, set 1 = 0.0728.
Against CD163L1, the values are BNIP3L mRNA, set 1 = 0.0867; NDRG1 mRNA, set 1 = 0.178.
Silencing of GSTA4 came out at: BNIP3L mRNA, set 1 = 0.111; NDRG1 mRNA, set 1 = 0.0894.
After knock-down of SLC34A2, the record shows BNIP3L mRNA, set 1 = 0.146; NDRG1 mRNA, set 1 = 0.354.
UHRF1 showed BNIP3L mRNA, set 1 = 0.0844; NDRG1 mRNA, set 1 = 0.179.
LAMA2 gave BNIP3L mRNA, set 1 = 0.0772; NDRG1 mRNA, set 1 = 0.125.
Depletion of GLIPR1L1 resulted in: BNIP3L mRNA, set 1 = 0.102; NDRG1 mRNA, set 1 = 0.158.
Depletion of NELL1 came out at: BNIP3L mRNA, set 1 = 0.101; NDRG1 mRNA, set 1 = 0.136.
CRMP1 gave BNIP3L mRNA, set 1 = 0.138; NDRG1 mRNA, set 1 = 0.174.
LAMA1 showed BNIP3L mRNA, set 1 = 0.124; NDRG1 mRNA, set 1 = 0.202.
Against SIGLEC5, the values are BNIP3L mRNA, set 1 = 0.158; NDRG1 mRNA, set 1 = 0.216.
With knock-down of RUBCNL, the screen gave BNIP3L mRNA, set 1 = 0.188; NDRG1 mRNA, set 1 = 0.349.
For CREB3L2, the entry reads BNIP3L mRNA, set 1 = 0.0563; NDRG1 mRNA, set 1 = 0.358.
With knock-down of STAP1 the results were BNIP3L mRNA, set 1 = 0.0449; NDRG1 mRNA, set 1 = 0.177.
For FCRL3, the entry reads BNIP3L mRNA, set 1 = 0.0679; NDRG1 mRNA, set 1 = 0.104.
LCP1 scored BNIP3L mRNA, set 1 = 0.0927; NDRG1 mRNA, set 1 = 0.136.
With knock-down of RASSF1, the screen gave BNIP3L mRNA, set 1 = 0.176; NDRG1 mRNA, set 1 = 0.205.
For NAA15, the values are BNIP3L mRNA, set 1 = 0.123; NDRG1 mRNA, set 1 = 0.0962.

3 entries already listed, sorted by “NDRG1 mRNA, set 1”, lowest first.
FCRL3: BNIP3L mRNA, set 1 = 0.0679; NDRG1 mRNA, set 1 = 0.104
LCP1: BNIP3L mRNA, set 1 = 0.0927; NDRG1 mRNA, set 1 = 0.136
RASSF1: BNIP3L mRNA, set 1 = 0.176; NDRG1 mRNA, set 1 = 0.205
